Reference: US20070037841A1, “Inhibitors” (priority 2003, published 2007)
At least one compound was matched to its structure with a doubt left.

Tested on: RRE
Test: UV absorption spectrum screening of drugs mixed with RRE
Type: binding, HIV-1
Conditions: range of 300 nm to 400 nm; absorption of free compound subtracted or compared
Description: Referring to UV absorption spectra of RRE in the presence and absence of naphthyridine dimer, screenings of the drugs was carried out. […] In FIG. 7, the solid line indicates the UV absorption spectrum of RRE alone, and the dotted line indicates a UV absorption spectrum when the absorption of naphthyridine dimer free is subtracted from the absorption of the mixture of naphthyridine dimer and RRE. […] In FIG. 8, the solid line indicates the UV absorption spectrum of RRE alone, and the dotted line indicates a UV absorption spectrum when the absorption of the naphthyridine-azaquinolone hybrid free is subtracted from the absorption of the mixture of the naphthyridine-azaquinolone hybrid and RRE. […] In FIG. 9, the solid line indicates the UV absorption spectrum of RRE alone, and the dotted line indicates a UV absorption spectrum when the absorption of the first quinoline-containing compound free is subtracted from the absorption of the mixture of the first quinoline-containing compound and RRE. […] In FIG. 10, the solid line indicates the UV absorption spectrum of RRE alone, and the dotted line indicates a UV absorption spectrum when the absorption of the second quinoline-containing compound free is subtracted from the absorption of the mixture of the second quinoline-containing compound and RRE. […]

Question: For `NCCC(=O)NCc1ccc2ccc(=O)[nH]c2n1` [azaquinolone], which “change in UV absorption spectrum on mixing with RRE” value is on record?
Answer: almost no changes

Question: For `Cc1ccc2ccc(NC(=O)CCN)nc2n1` [naphthyridine], which “change in UV absorption spectrum on mixing with RRE” value is on record?
Answer: almost no changes
